# Experimental data: PubChem BioAssay AID1053208 (Peter MacCallum Cancer Centre, 2014)
# Assay: 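Find knock-downs that sensitise mouse osteosarcoma cells to doxorubicin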 (primary screen)
# System: mouse osteosarcoma cells, early-passage culture from an engineered mouse model of fibroblastic bone tumour
# Reagent: siRNA pool against mouse genes, 40 nM
# Duration: about 120 h (48 h before drug, then 72 h with drug)
# Conditions: doxorubicin 100 nM for 72 h, roughly 30-40% inhibitory dose
# Detection: 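Luminescent ATP signal taken as viability with or without 100 nM doxorubicin for 72 h; mean of two wells set against non-targeting siRNA and turned into robust z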
# Direction: viability z-score with doxorubicin and doxorubicin viability vs non-targeting: higher = more viable cells under doxorubicin; viability z-score without drug: higher = more viable cells with knock-down alone; z-score of drug to no-drug ratio: higher = less drug sensitisation by knock-down
# Active means: 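Called active if knock-down leaves viability unchanged without drug (z within -2 to 2) but lowers it with doxorubicin (z at or under -2)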
# The deposit covers about 17,000 reagents; this is an unselected part. Of all reagents, 788 (4.7%) are marked active. 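Calls rest on z-score classes alone; an extra cut-off of viability at most 70% of control was not applied to them.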 A number with no mark means an inactive call. Some reagents were tested in more than one well and are listed for each.
target gene,combined z-score class,viability z-score with doxorubicin,viability z-score without drug,z-score of drug to no-drug ratio,doxorubicin viability vs non-targeting
Pih1d1 (PIH1 domain containing 1),no change with or without drug,1.12,1.18,0.45,1.04
Gmpr (guanosine monophosphate reductase),no change with or without drug,-1.12,-0.84,-0.56,0.84
Lpar4 (lysophosphatidic acid receptor 4),no change with or without drug,0.67,0,0.79,1
Tspan32 (tetraspanin 32),no change with or without drug,1.57,0.51,1.35,1.08
Ttc39b (tetratricopeptide repeat domain 39B),high cell count with doxorubicin only,2.36,0.84,1.91,1.15
Fh1 (fumarate hydratase 1),no change with or without drug,0.11,1.18,-0.56,0.95
Trp73 (transformation related protein 73),no change with or without drug,-0.45,1.69,-1.35,0.9
Son (Son DNA binding protein),low cell count with and without drug,-3.15,-2.36,-1.91,0.66
Dock6 (dedicator of cytokinesis 6),no change with or without drug,0.67,0.51,0.45,1
1700082M22Rik (RIKEN cDNA 1700082M22 gene),no change with or without drug,-0.67,1.18,-1.35,0.88
"Catsper3 (cation channel, sperm associated 3)",no change with or without drug,-1.35,-0.67,-0.9,0.82
Ace2 (angiotensin converting enzyme 2),no change with or without drug,1.24,-0.51,1.8,1.05
Crnkl1 (crooked neck pre-mRNA splicing factor 1),low cell count with and without drug,-4.27,-3.88,-2.25,0.56
Hs3st2 (heparan sulfate (glucosamine) 3-O-sulfotransferase 2),no change with or without drug,-0.67,0,-0.56,0.88
Rpl15 (ribosomal protein L15),low cell count with and without drug,-6.74,-7.59,-3.37,0.34
AI504432 (expressed sequence AI504432),no change with or without drug,-0.22,-1.01,0.56,0.92
4933430I17Rik (RIKEN cDNA 4933430I17 gene),no change with or without drug,-1.35,-0.51,-1.01,0.82
Rpl31 (ribosomal protein L31),low cell count with and without drug,-5.85,-4.55,-4.05,0.42
Cdc42se2 (CDC42 small effector 2),no change with or without drug,0.67,-1.01,1.57,1
Cdc42se2 (CDC42 small effector 2),no change with or without drug,1.46,1.35,0.67,1.07
Chuk (conserved helix-loop-helix ubiquitous kinase),no change with or without drug,0.67,-0.84,1.46,1
Or1o4 (olfactory receptor family 1 subfamily O member 4),no change with or without drug,-1.69,-1.85,-0.45,0.79
C030006K11Rik (RIKEN cDNA C030006K11 gene),no change with or without drug,-0.56,-0.34,-0.22,0.89
Lypd4 (Ly6/Plaur domain containing 4),no change with or without drug,-1.35,-1.85,0,0.82
"Src (src proto-oncogene, non-receptor tyrosine kinase)",no change with or without drug,1.57,1.35,0.79,1.08
Vmn1r11 (vomeronasal 1 receptor 11),low cell count with doxorubicin only (active),-2.47,-0.84,-2.02,0.72
Aamp (angio-associated migratory protein),no change with or without drug,0.45,0.84,0,0.98
Timm21 (translocase of inner mitochondrial membrane 21),no change with or without drug,-1.8,1.69,-2.7,0.78
Coa8 (cytochrome c oxidase assembly factor 8),no change with or without drug,1.35,1.35,0.56,1.06
Cabp7 (calcium binding protein 7),no change with or without drug,-0.67,1.18,-1.35,0.88
Psme3ip1 (proteasome activator subunit 3 interacting protein 1),no change with or without drug,-0.9,-0.84,-0.22,0.86
Cdh1 (cadherin 1),no change with or without drug,-0.45,0.17,-0.45,0.9
Trip11 (thyroid hormone receptor interactor 11),no change with or without drug,0.67,-0.34,1.12,1
Mink1 (misshapen-like kinase 1 (zebrafish)),no change with or without drug,0.67,0.51,0.45,1
Gng5 (G protein subunit gamma 5),no change with or without drug,-0.9,0.84,-1.35,0.86
Gadd45g (growth arrest and DNA-damage-inducible 45 gamma),no change with or without drug,0.11,-0.84,0.9,0.95
Atp5if1 (ATP synthase inhibitory factor subunit 1),no change with or without drug,-0.22,0.51,-0.45,0.92
"Col9a1 (collagen, type IX, alpha 1)",no change with or without drug,0.56,0.51,0.34,0.99
Metap1 (methionyl aminopeptidase 1),no change with or without drug,-0.11,-1.18,0.9,0.93
Tlr9 (toll-like receptor 9),no change with or without drug,-0.9,-1.01,-0.11,0.86
Trappc4 (trafficking protein particle complex 4),high cell count with doxorubicin only,3.04,0.51,2.81,1.21
Usp4 (ubiquitin specific peptidase 4),low cell count with doxorubicin only (active),-2.7,-0.51,-2.47,0.7
"Klk1b7-ps (kallikrein 1-related peptidase b7, pseudogene)",no change with or without drug,1.12,0.51,0.9,1.04
Rassf3 (Ras association (RalGDS/AF-6) domain family member 3),high cell count without drug only,1.35,2.19,0,1.06
H3f3b (H3.3 histone B),no change with or without drug,-0.9,-0.51,-0.56,0.86
Abcg5 (ATP binding cassette subfamily G member 5),no change with or without drug,0.79,0.17,0.79,1.01
"Akr1d1 (aldo-keto reductase family 1, member D1)",no change with or without drug,-0.67,-0.51,-0.22,0.88
Atg101 (autophagy related 101),no change with or without drug,-0.79,-0.84,-0.11,0.87
"Cryab (crystallin, alpha B)",low cell count with doxorubicin only (active),-2.47,0.34,-2.7,0.72
Mzb1 (marginal zone B and B1 cell-specific protein 1),no change with or without drug,-1.35,1.52,-2.14,0.82
